# Laboratory results published in PubChem BioAssay AID1671190 (National Center for Advancing Translational Sciences (NCATS), 2021).
# The chains behind the UniProt entries cited, without tags or fusion partners. Where a name states a change or a piece, a line headed by the entry shows the natural chain unless it says otherwise.
# UniProt P18054: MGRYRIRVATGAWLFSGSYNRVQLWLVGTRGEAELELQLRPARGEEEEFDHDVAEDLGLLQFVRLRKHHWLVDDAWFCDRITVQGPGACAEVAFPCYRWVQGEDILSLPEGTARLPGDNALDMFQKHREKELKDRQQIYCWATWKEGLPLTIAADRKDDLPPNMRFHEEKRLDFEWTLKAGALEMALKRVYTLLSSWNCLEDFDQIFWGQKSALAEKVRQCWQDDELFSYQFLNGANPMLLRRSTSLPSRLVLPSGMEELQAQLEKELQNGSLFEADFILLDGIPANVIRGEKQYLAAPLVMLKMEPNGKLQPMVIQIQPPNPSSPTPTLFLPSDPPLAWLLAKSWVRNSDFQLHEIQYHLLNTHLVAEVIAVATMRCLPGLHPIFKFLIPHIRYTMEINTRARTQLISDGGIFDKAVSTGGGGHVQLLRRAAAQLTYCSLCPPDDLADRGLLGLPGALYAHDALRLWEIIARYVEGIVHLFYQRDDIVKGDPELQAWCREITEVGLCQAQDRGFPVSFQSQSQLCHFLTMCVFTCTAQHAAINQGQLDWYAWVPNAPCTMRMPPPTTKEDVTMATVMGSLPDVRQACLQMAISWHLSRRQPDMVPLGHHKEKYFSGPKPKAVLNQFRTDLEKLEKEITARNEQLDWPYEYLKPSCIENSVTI
# Screen size: about 580,000 compounds; about 6,100 (1.1%) were called active. The shares of active, inactive and inconclusive entries below differ from those in the screen. The call rests on the fitted dose curve; in most records, active means well fitted inhibition curve with a large enough effect; inconclusive means small, poorly fitted or top-dose-only effect, or another doubt; inactive means no such curve, though single readings can be large or run the other way. Potencies beside an inconclusive call are fits to weak or partial responses and may not hold up.
# Target: Polyunsaturated fatty acid lipoxygenase ALOX12 (Homo sapiens) (UniProt P18054)
# Assay: Primary qHTS assay for inhibitors of human arachidonate 12S-lipoxygenase (ALOX12): Round 2
# Details: purified 12hLO, xylenol orange hydroperoxide absorbance; activity change, negative = inhibition: at 108 µM (top of the series) unless noted
# Outline: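 Hydroperoxide product was detected by ferrous iron/xylenol orange as the 573 to 405 nm absorbance ratio. Arachidonic acid at 40 uM (final) was turned over for 30 min at room temperature by 150 nM human 12hLO, pH 7.0 Hepes buffer, after 15 min compound preincubation.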
# On the % scale 0 is the no-effect control and ±100 the full control effect; potency means the concentration at half of the fitted maximal effect.
SMILES,"activity change, negative = inhibition",Potency
Cc1cc(=O)oc2c3c(cc(OCC(=O)NCCCn4ccnc4)c12)OC(C)(C)CC3,inactive: 15%,
O=C([C@@H]1[C@@H](CO)[C@@H]2Cn3c(cccc3=O)[C@H]1N2Cc1cccc(Cl)c1)N1CCOCC1,,"inconclusive: 50.1 µM [inhibitor, partial curve, poor fit]"
Cc1cc(N2CCN(C)CC2)nc2ccc(NC(=O)Nc3ccccc3Cl)cc12,,"inconclusive: 100 µM [inhibitor, partial curve, poor fit]"
CCCCCn1c(=O)[nH]c2cc(C(=O)NCc3ccc4c(c3)OCO4)ccc2c1=O,inactive: 0%,
Cc1nc(Nc2cccc(C(F)(F)F)c2)nc2c1C(=O)CC(C)C2 (stereo unspecified),,"inconclusive: 112 µM [inhibitor, single point]"
COc1cc2c(cc1OC)C(c1ccccc1)N(C(=O)c1ccccc1F)CC2 (stereo unspecified),,"inconclusive: 79.4 µM [inhibitor, partial curve, poor fit]"
CCOC(=O)Nc1ccc2c(c1)N(C(=O)N(C)C)c1ccccc1CC2,inactive: -24.6%,
CC(C)C[C@H]1CNC(=O)C(=O)N1C[C@H]1CCCN1C[C@H](CC(C)C)N1C[C@H](Cc2ccccc2)N(CCc2ccccc2)C(=O)C1=O,,"inconclusive: 79.4 µM [inhibitor, single point]"
Nc1nnc(-c2ccccc2Cl)s1,,"inconclusive: 0.562 µM [inhibitor, full curve, poor fit]"
CN(C)C(=O)CNS(=O)(=O)c1cccc(F)c1,,"inconclusive: 89.1 µM [inhibitor, partial curve, poor fit]"
O=c1[nH]c2cc(C(F)(F)F)ccc2n1-c1cc(C(F)(F)F)ccc1O,,"inconclusive: 79.4 µM [inhibitor, partial curve, poor fit]"
CCN(Cc1ccccc1)C(=O)c1cc2c(N3CCCC3)nc(C)cn2n1,,"inconclusive: 8.91 µM [inhibitor, full curve]"
CC1CCN(CCNC2CCCC2)CC1,,"inconclusive: 8.91 µM [inhibitor, full curve]"
CN(CC(=O)Nc1cccc(F)c1)Cc1ncc(-c2ccc(F)cc2)o1,inactive: 21.7%,
O=C(NC1CCCC1)N1CC(Oc2cccc(-c3nc(-c4ccccc4)no3)c2)C1,,"inconclusive: 20 µM [inhibitor, partial curve, poor fit]"
CCNC(=O)[C@@H]1CCCN1C(C)(C)C(=O)NC,,"inconclusive: 31.6 µM [inhibitor, single point]"
Cc1ccc(-c2nc(C3CC(=O)OC34CCCC4)n(CC(=O)O)n2)o1 (stereo unspecified),,"inconclusive: 2.51 µM [inhibitor, full curve, poor fit]"
CC(C)=CC(=O)OCC(=O)Nc1ncc(Cl)c(C)c1Cl,,"inconclusive: 39.8 µM [inhibitor, partial curve, poor fit]"
CCCCCCCCCCCC,,"inconclusive: 56.2 µM [inhibitor, partial curve, poor fit]"
Cc1cccn2c(=O)c3cc(C#N)c(=O)n(-c4c(C)n(C)n(-c5ccccc5)c4=O)c3nc12,,"inconclusive: 50.1 µM [inhibitor, partial curve, poor fit]"
CCOC(=O)C1=C(CNCc2ccccc2)NC(=O)NC1c1ccc(C)cc1 (stereo unspecified),,"inconclusive: 56.2 µM [inhibitor, partial curve, poor fit]"
CCOC(=O)c1ccc(NC(=O)c2ccnn2C)cc1,inactive: 0%,

SMILES,"activity change, negative = inhibition",Potency
CC(C)(C)NC(=O)c1ccc(NC(=O)c2ccc(Cl)cc2Cl)cc1,inactive: 14.6%,
Cc1c(Cl)cnc(NC(=O)COC(=O)CNC(=O)c2ccccc2)c1Cl,,"inconclusive: 25.1 µM [inhibitor, partial curve, poor fit]"
COc1ccc(N2CCN(S(C)(=O)=O)CC2)cc1,,"inconclusive: 100 µM [inhibitor, partial curve, poor fit]"
O=C(NCc1ccccc1)C12CC3CCC(CC(C3)C1)C2,inactive: 5.51%,
Cc1c(C(=O)N2CCCCC2)oc2ccc(Br)cc12,,"inconclusive: 50.1 µM [inhibitor, partial curve, poor fit]"
COc1cc(/C(C)=N/NC(=S)NC(C)C)cc(OC)c1OC,,"inconclusive: 50.1 µM [inhibitor, partial curve, poor fit]"
CCOc1cc(/C=C/c2ncc(C(=O)O)s2)cc(Cl)c1OC,,"inconclusive: 28.2 µM [inhibitor, partial curve]"
CCc1nc2ccc(C(=O)NCc3ccc(C)o3)cc2nc1CC,inactive: -0.938%,
Cn1cc(C(=O)Nc2ccc(Cl)cc2)c(C(F)(F)F)n1,inactive: -9.25%,
CC(Sc1ccc(C(F)(F)F)cn1)C(=O)Nc1ccccc1 (stereo unspecified),,"inconclusive: 141 µM [inhibitor, single point]"
CC(=O)c1c(C)c(C)c2n1CCn1c(C)ccc1-2,,"inconclusive: 44.7 µM [inhibitor, partial curve, poor fit]"
CC1(C(=O)NS(=O)(=O)c2cccc(C#N)c2)CCN1C(=O)CCC1CCCC1 (stereo unspecified),,"inconclusive: 44.7 µM [inhibitor, partial curve, poor fit]"
COc1cccc(CC(=O)N2CCC(c3n[nH]c(=O)n3-c3ccc(C)cc3)CC2)c1,,"inconclusive: 22.4 µM [inhibitor, full curve, poor fit]"
COc1ccc(-n2c(=O)c(-c3ccccc3)nc3cnc(N4CCOCC4)nc32)cc1,,"inconclusive: 28.2 µM [inhibitor, single point]"
O=[S+]1([O-])NC2(CCN(Cc3cccc4ccccc34)CC2)CNc2ccccc21,,"inconclusive: 56.2 µM [inhibitor, single point]"
CCCCCCCOC(=O)c1c(C)oc2c1cc(NS(=O)(=O)c1cccs1)c1ccccc12,,"inconclusive: 56.2 µM [inhibitor, partial curve, poor fit]"
COCCCn1c(=S)[nH]c2sc3c(c2c1=O)CCCC3,,"inconclusive: 44.7 µM [inhibitor, partial curve, poor fit]"
Cc1csc2c(N3CCN(C(=O)NC(C)(C)C)CC3)ncnc12,,"inconclusive: 126 µM [inhibitor, single point]"
COc1ccc2ccccc2c1/C=N/N1C(=O)CSC1=S,inactive: -11.6%,
Cc1cc(C)cc(NC(=O)NCC2CCN(Cc3cc(C)ccc3C)CC2)c1,,"inconclusive: 89.1 µM [inhibitor, partial curve, poor fit]"
CCC(C(=O)OCC(=O)N1CCN(c2ccc(OC)cc2)CC1)c1ccccc1 (stereo unspecified),inactive: 46.7%,
O=C(O)/C=C/c1ccc(-c2ccccc2F)o1,,"inconclusive: 35.5 µM [inhibitor, partial curve, poor fit]"

# Random excerpt: 3 compounds from above
SMILES,"activity change, negative = inhibition",Potency
COc1ccc(N2CCN(S(C)(=O)=O)CC2)cc1,,"inconclusive: 100 µM [inhibitor, partial curve, poor fit]"
Cc1csc2c(N3CCN(C(=O)NC(C)(C)C)CC3)ncnc12,,"inconclusive: 126 µM [inhibitor, single point]"
CCOc1cc(/C=C/c2ncc(C(=O)O)s2)cc(Cl)c1OC,,"inconclusive: 28.2 µM [inhibitor, partial curve]"

# The list continues:

SMILES,"activity change, negative = inhibition",Potency
O=c1cc(-c2ccc(O)c(O)c2)oc2c1ccc1ccccc12,,active: 0.355 µM
Cc1ccc(NS(=O)(=O)c2ccc(NC(=O)C(C)Sc3ccc(Cl)cc3)cc2)c(C)c1 (stereo unspecified),,"inconclusive: 89.1 µM [inhibitor, single point]"
N#Cc1cc(-c2ccccc2)nc(Oc2ccccc2)n1,inactive: -8.27%,
COc1cc2c(cc1NC(=O)C(C)Oc1ccc(Cl)cc1Cl)oc1ccccc12 (stereo unspecified),inactive: -0.796%,
Cc1ccc(OCCN2CCC2(C)C(=O)NCc2ccc(C(F)(F)F)cc2)cc1 (stereo unspecified),,"inconclusive: 158 µM [inhibitor, single point]"
NS(=O)(=O)c1ccc(CCNC(=O)CN2CCN(c3ccc(F)cc3)CC2)cc1,inactive: -10.7%,
Cc1onc(-c2c(Cl)cccc2Cl)c1C(=O)N=C(N)N1CCOCC1,,"inconclusive: 112 µM [inhibitor, single point]"
CCOc1c(Br)cc(/C=C/C(=O)c2ccc(C#N)cc2)cc1OC,,"inconclusive: 126 µM [inhibitor, single point]"
CCOC(=O)/C(C#N)=C/c1ccc(N2CCN(C)CC2)cc1,,"inconclusive: 50.1 µM [inhibitor, partial curve, poor fit]"
COc1cc(NC(=O)N[C@H](C)c2onc(-c3ccccc3)c2C(=O)O)cc(OC)c1,,"inconclusive: 50.1 µM [inhibitor, full curve, poor fit]"
O=C(O)CCCn1c(O)c(C=C2N=c3ccccc3=N2)sc1=S,,"inconclusive: 112 µM [inhibitor, single point]"
CCCCn1c(N)c(N(CC(C)C)C(=O)c2cc(-c3ccc(OC)c(OC)c3)nc3ccccc23)c(=O)[nH]c1=O,,"inconclusive: 39.8 µM [inhibitor, partial curve, poor fit]"
N#Cc1nc(C2CC2)oc1N1CCN(CC(=O)NC(N)=O)CC1,inactive: 5.82%,
CCN(CC)CCNC(=O)c1ccc(CN)cc1,,"inconclusive: 1.26 µM [inhibitor, full curve]"
CN(C)C(=O)CCC(=O)N1CCCC(C(=O)c2ccc3c4c(cccc24)CC3)C1 (stereo unspecified),inactive: 0%,
Cc1cc(C(=O)C(C)OC(=O)c2cnccn2)c(C)n1-c1ccccc1 (stereo unspecified),inactive: -2.89%,
COc1ccccc1C(C(=O)NCc1ccccc1)N(C(=O)c1csnn1)C1CC1 (stereo unspecified),,"inconclusive: 0.224 µM [inhibitor, full curve, poor fit]"
CN(Cc1ccc(C(=O)NCC(F)(F)F)cc1)C(=O)C1CCN(C(=O)C2CC2)CC1,,"inconclusive: 158 µM [inhibitor, partial curve, poor fit]"
COCC(C)NC(=O)C1CCN(Cc2ccc(C)cc2)CC1 (stereo unspecified),inactive: -2.97%,
COCCNc1nc2cc(-c3cccc(C(F)(F)F)c3)sc2c(=O)n1C,inactive: 7.87%,
O=C(C1CC1)N1CCc2nc(-c3ccc(Cl)cc3)nc(-c3ccccc3)c2C1,,"inconclusive: 89.1 µM [inhibitor, partial curve, poor fit]"
CCN1CCN(c2ccccc2NC(=O)c2ccc(NC(=O)c3ccco3)s2)CC1,,"inconclusive: 35.5 µM [inhibitor, partial curve, poor fit]"
